Here are results for 16 molecules from PubChem BioAssay AID493014 (National Center for Advancing Translational Sciences (NCATS), 2011).

A short description of this experiment: qHTS Assay to Find Inhibitors of Chronic Active B-Cell Receptor Signaling. The following applies: ABC-DLBCL IkBa-CBG/CBR reporter, luminescence ratio (green luciferase fused to IkBa over red control in TMD8 lymphoma cells), 4 h. A digest of the protocol: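 TMD8 ABC-DLBCL cells carrying doxycycline-inducible green luciferase fused to IkappaBalpha plus unfused red luciferase were exposed to compounds (up to 46 uM) for 4 hrs at 37C. Activity came from the overlap-corrected green/red luminescence ratio.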
A general note: In qHTS, concentration-response curves come from the screen itself.

The mark [1] stands for this setting: measured here: CBR red luminescence, cell number.
Where [2] appears, read: measured here: IkBa-CBG green luminescence.

SMILES strings stand for the structures. The list shows a part of the results. Shown are side measurements of this screen, not its main read-out; they come without a call. The list favours compounds with an active or inconclusive main result. The note in brackets gives the kind of curve behind each potency; many fits are weak.

The term AC50 denotes the concentration at which the activity in the assay is half-maximal. `CC(=O)c1ccc(-n2c(=O)[nH]c(=O)c3c(N)c(C(=O)c4ccc(Cl)cc4)sc32)cc1`: the AC50 under setting [1] is 0.562 µM [rising, full curve]. `O=C1/C(=C/c2ccccc2)SC(=S)N1CCCC(=O)N1CCCCC1CCO` (stereo not drawn): the AC50 under setting [1] was 5.62 µM [falling, full curve]. In the case of `CC(C)(CO)NC(=O)C(Cc1ccccc1)N1C(=O)c2ccccc2C1=O` (stereo not drawn), under setting [1], the concentration at half-maximal activity (AC50) was 10 µM [rising, partial curve, poor fit].

Regarding `Cc1occc1C(=O)NNC(=O)c1nn(C)c(=O)c2ccccc12`, the AC50 under setting [1] was 11.2 µM [falling, partial curve, poor fit].

`Cc1cc(-c2ccc(/C=N/n3cnnc3)o2)ccc1Cl`: the AC50 under setting [1] was 8.2 µM [rising, partial curve, poor fit].

`COc1ccc(C2C(C(=O)N3CCN(c4ccccn4)CC3)CCC(=O)N2c2ccc(OC)cc2)cc1` (stereo not drawn): the AC50 under setting [1] was 35.5 µM [falling, single point].

For `COc1cc(OC)cc(C(=O)Nc2ccc(C(=O)c3ccncc3)cc2)c1`, under setting [1], the AC50 is 6.31 µM [falling, single point]. Take `CC1CCN(c2nnc(-c3cccs3)c3ccccc23)CC1`: the AC50 under setting [1] is 7.31 µM [rising, partial curve, poor fit]. In the case of `CC1CCC(n2c(=S)[nH]c3ccccc3c2=O)CC1` (stereo not drawn), the AC50 is, setting by setting: under setting [1], 15.8 µM [rising, partial curve, poor fit]; under setting [2], 11.2 µM [falling, partial curve]. Turning to `CCOc1ccc(NC(=O)Cc2ccccc2)cc1`, the AC50 under setting [1] is 0.92 µM [rising, full curve, poor fit].

For the molecule `CCN(CC)c1ccc(C=Nc2ccc(N(C)C)cc2)c(O)c1`, the AC50 under setting [1] was 11.6 µM [falling, partial curve, poor fit]. Regarding `O=C(C1=C[C@@H](c2ccc(C(F)(F)F)cc2)C[C@@H](OCc2ccc(CO)cc2)O1)N1CCN(Cc2ccccc2)CC1`, the AC50 under setting [1] was 35.5 µM [falling, single point]. Turning to `O=C(/C=C/c1ccccc1Cl)NCCc1ccc(F)cc1`, the AC50 under setting [1] was 29.1 µM [falling, single point].

Regarding `Cc1ccc(NC(=O)c2ccc(Nc3c([N+](=O)[O-])cc([N+](=O)[O-])cc3[N+](=O)[O-])cc2)cc1`, the AC50 is, setting by setting: under setting [1], 9.2 µM [falling, partial curve]; under setting [2], 10.3 µM [rising, partial curve, poor fit]. With `C=CCN1C(=O)/C(=N/n2cnnc2)c2ccccc21`, the AC50 under setting [1] is 35.5 µM [rising, single point]. The same measure, in the same setting: the value for `Cc1ccc(N(Cc2ccc(C(=O)NN=C3CCN(C)CC3)cc2)S(C)(=O)=O)cc1C` was 16.4 µM [falling, partial curve, poor fit].
